Reference: PubChem BioAssay AID214 (DTP/NCI, 2004)
The list is a part of this screen's results and no random one: it is rich in T/C values a quarter to a half above the control, in often repeated tests (any T/C) and in doses without a T/C. Other doses and runs of a compound stand elsewhere. T/C: endpoint of the treated group in % of that of the vehicle group. Schedule codes are those of the source, taken here to give the interval after Q, in days (D) or hours (H), and the number of doses after X. Some T/C values are followed by the survivors on the day toxicity was checked, most often the fifth; where none is given, no animal had died by that day. Some entries were tested several times; the values are given in rising order. Some entries give survivors of the animals treated and no T/C: the source holds a T/C of zero for them, seemingly a mark for toxic or unscored doses. Some survivor counts are full or nearly so, which does not show that the dose was tolerated: the source hardly ever lists a survival T/C far under the control, and the zero likely stands for such cases as well. Counts of survivors are from the toxicity check (mostly the fifth day) where no day follows; animals may have died later. For survival time, the PubChem record calls one and a half times the control and up active, and a quarter to a half above the control has no call in these data; cut-offs in other NCI protocols can differ.

Tested on: B6C3F1 mice, colon carcinoma 38 s.c., T/C
Test: NCI In Vivo Anticancer Drug Screen. Data for tumor model Colon Carcinoma 38 (subcutaneous) in B6C3F1 mice
Description: The antitumor activity of compounds was measured in mice bearing transplantable tumors. Survival or tumor size were measured and the results are expressed as the measurement made in the treated group (T) divided by the measurement made in the vehicle treated control group (C). The tumor model used in this assay is Colon Carcinoma 38 (subcutaneous) in B6C3F1 mice

## Cc1cc(NS(=O)(=O)c2ccc(N=Nc3cc(N=Nc4ccc(S(=O)(=O)Nc5cc(C)nc(C)n5)cc4)c4c(NC(=O)C(Cl)Cl)cccc4c3OC(=O)C(Cl)Cl)cc2)nc(C)n1 (tested in a mixture with another compound)
T/C endpoint: median tumor weight (est.), dose: 50.0 mg/kg/injection, schedule: Q07DX002 (ip), vehicle: suspension in saline, evaluated on day 20, higher T/C = larger tumour
  T/C: 136 % of control [9 of 10 alive on day 20]
T/C endpoint: median tumor weight (est.), dose: 100.0 mg/kg/injection, schedule: Q07DX002 (ip), vehicle: suspension in saline, evaluated on day 20, higher T/C = larger tumour
  T/C: 133 % of control
T/C endpoint: median tumor weight (est.), dose: 200.0 mg/kg/injection, schedule: Q07DX002 (ip), vehicle: suspension in saline, evaluated on day 20, higher T/C = larger tumour
  T/C: 139 % of control
T/C endpoint: median tumor weight (est.), dose: 800.0 mg/kg/injection, schedule: Q07DX002 (ip), vehicle: suspension in saline, higher T/C = larger tumour
  survivor count: 0 of 10 on day 20

## O=C1NC(=O)/C(=C/C=C/c2ccccc2)S1
T/C endpoint: median tumor weight (est.), dose: 1600.0 mg/kg/injection, schedule: Q07DX002 (ip), vehicle: saline with Tween-80, higher T/C = larger tumour
  survivor count: 6 of 10 on day 20

## COc1cccc(-c2cc(=O)c3cccc(CC(=O)O)c3o2)c1
T/C endpoint: median tumor weight (est.), dose: 400.0 mg/kg/injection, schedule: Q07DX002 (ip), vehicle: saline, higher T/C = larger tumour
  survivor count: 3 of 10 on day 20

## COC1C(CO)OC(n2cnc3c(=S)nc(N)[nH]c32)C1O (configuration not stated)
T/C endpoint: median tumor weight (est.), dose: 1600.0 mg/kg/injection, schedule: Q07DX002 (ip), vehicle: Klucel (hydroxypropylcellulose) (HPC), higher T/C = larger tumour
  survivor count: 6 of 10 on day 20

## Cc1cc(NCCCCCCCCNc2cc(C)nc3cc(N(C)C)ccc23)c2ccc(N(C)C)cc2n1
T/C endpoint: median tumor weight (est.), dose: 50.0 mg/kg/injection, schedule: Q07DX002 (ip), vehicle: distilled water + Tween-80 + alcohol, higher T/C = larger tumour
  survivor count: 6 of 10 on day 20
T/C endpoint: median tumor weight (est.), dose: 100.0 mg/kg/injection, schedule: Q07DX002 (ip), vehicle: distilled water + Tween-80 + alcohol, higher T/C = larger tumour
  survivor count: 0 of 10 on day 20

## CC(C)CCC(=O)c1ccoc1
T/C endpoint: median tumor weight (est.), dose: 4.0 mg/kg/injection, schedule: Q03HX006 (ip), vehicle: saline with Tween-80, higher T/C = larger tumour
  survivor count: 1 of 10 on day 20

## Cn1cc(C2NC(=O)c3ccccc3N2)c2ccccc21 (configuration not stated)
T/C endpoint: median tumor weight (est.), dose: 100.0 mg/kg/injection, schedule: Q07DX002 (ip), vehicle: Klucel (hydroxypropylcellulose) (HPC), evaluated on day 20, higher T/C = larger tumour
  T/C: 128 % of control
T/C endpoint: median tumor weight (est.), dose: 400.0 mg/kg/injection, schedule: Q07DX002 (ip), vehicle: Klucel (hydroxypropylcellulose) (HPC), evaluated on day 20, higher T/C = larger tumour
  T/C: 128 % of control [9 of 10 alive on day 20]

## O=[N+]([O-])c1ccc(N2CCOCC2)c2c1no[n+]2[O-]
T/C endpoint: median tumor weight (est.), dose: 25.0 mg/kg/injection, schedule: Q07DX002 (ip), vehicle: saline with Tween-80, evaluated on day 20, higher T/C = larger tumour
  T/C: 125 % of control
T/C endpoint: median tumor weight (est.), dose: 400.0 mg/kg/injection, schedule: Q07DX002 (ip), vehicle: saline with Tween-80, higher T/C = larger tumour
  survivor count: 3 of 10 on day 20

## COCCCNC1=C(C#N)C(=O)NC(c2cccc([N+](=O)[O-])c2)S1 (configuration not stated)
T/C endpoint: median tumor weight (est.), dose: 1800.0 mg/kg/injection, schedule: Q07DX002 (ip), vehicle: saline with Tween-80, evaluated on day 20, higher T/C = larger tumour
  T/C: 147 % of control [9 of 10 alive on day 20]

## CC(=O)CC(=O)CCC(=O)O
T/C endpoint: median tumor weight (est.), dose: 800.0 mg/kg/injection, schedule: Q07DX002 (ip), vehicle: saline, higher T/C = larger tumour
  survivor count: 0 of 10 on day 20

## CCN(CC)CCOC(=O)Cc1cccc2c(=O)cc(-c3ccccc3)oc12
T/C endpoint: median survival time, dose: 12.5 mg/kg/injection, schedule: Q01DX001 (iv), vehicle: saline, higher T/C = longer survival
  T/C: 127 % of control
T/C endpoint: median survival time, dose: 12.5 mg/kg/injection, schedule: Q07DX002 (iv), vehicle: saline, higher T/C = longer survival
  survivor count: 8 of 10 on day 20
T/C endpoint: median survival time, dose: 15.82 mg/kg/injection, schedule: Q01DX001 (iv), vehicle: saline, higher T/C = longer survival
  survivor count: 10 of 10 on day 20
T/C endpoint: median survival time, dose: 25.0 mg/kg/injection, schedule: Q01DX001 (iv), vehicle: saline, higher T/C = longer survival
  survivor count: 9 of 10 on day 20
T/C endpoint: median survival time, dose: 50.0 mg/kg/injection, schedule: Q01DX001 (iv), vehicle: saline, higher T/C = longer survival
  survivor count: 6 of 10 on day 20
T/C endpoint: median survival time, dose: 50.0 mg/kg/injection, schedule: Q07DX002 (iv), vehicle: saline, higher T/C = longer survival
  survivor count: 2 of 10 on day 20 and 6 of 10 on day 20
T/C endpoint: median survival time, dose: 112.5 mg/kg/injection, schedule: Q01DX001 (ip), vehicle: saline, higher T/C = longer survival
  T/C: 145 % of control
T/C endpoint: median survival time, dose: 355.6 mg/kg/injection, schedule: Q07DX002 (ip), vehicle: saline, higher T/C = longer survival
  survivor count: 4 of 10 on day 20 and 6 of 10 on day 20
T/C endpoint: median tumor weight (est.), dose: 21.09 mg/kg/injection, schedule: Q07DX002 (iv), vehicle: saline, evaluated on day 20, higher T/C = larger tumour
  T/C: 130 % of control
T/C endpoint: median tumor weight (est.), dose: 37.5 mg/kg/injection, schedule: Q01DX001 (iv), vehicle: saline, evaluated on day 20, higher T/C = larger tumour
  T/C: 137 % of control [9 of 10 alive on day 20]
T/C endpoint: median tumor weight (est.), dose: 50.0 mg/kg/injection, schedule: Q01DX001 (iv), vehicle: saline, higher T/C = larger tumour
  survivor count: 6 of 10 on day 20
T/C endpoint: median tumor weight (est.), dose: 50.0 mg/kg/injection, schedule: Q07DX002 (ip), vehicle: saline, evaluated on day 20, higher T/C = larger tumour
  T/C: 1, 52 [8 of 10 alive on day 20], 57 [9 of 10 alive on day 20], 71 % of control [7 of 10 alive on day 20]
T/C endpoint: median tumor weight (est.), dose: 50.0 mg/kg/injection, schedule: Q07DX002 (iv), vehicle: saline, higher T/C = larger tumour
  survivor count: 2 of 10 on day 20 and 6 of 10 on day 20
T/C endpoint: median tumor weight (est.), dose: 63.3 mg/kg/injection, schedule: Q01DX008 (ip), vehicle: saline, evaluated on day 20, higher T/C = larger tumour
  T/C: 140 % of control [9 of 10 alive on day 20]
T/C endpoint: median tumor weight (est.), dose: 63.3 mg/kg/injection, schedule: Q03HX024 (ip), vehicle: saline, higher T/C = larger tumour
  survivor count: 2 of 10 on day 20
T/C endpoint: median tumor weight (est.), dose: 84.4 mg/kg/injection, schedule: Q03HX024 (ip), vehicle: saline, higher T/C = larger tumour
  survivor count: 0 of 10 on day 20
T/C endpoint: median tumor weight (est.), dose: 100.0 mg/kg/injection, schedule: Q07DX002 (ip), vehicle: saline, evaluated on day 20, higher T/C = larger tumour
  T/C: 38, 64, 82 [8 of 10 alive on day 20], 95, 205 % of control
T/C endpoint: median tumor weight (est.), dose: 112.5 mg/kg/injection, schedule: Q03HX024 (ip), vehicle: saline, higher T/C = larger tumour
  survivor count: 0 of 10 on day 20
T/C endpoint: median tumor weight (est.), dose: 112.5 mg/kg/injection, schedule: Q06HX016 (ip), vehicle: saline, higher T/C = larger tumour
  survivor count: 5 of 10 on day 20
T/C endpoint: median tumor weight (est.), dose: 150.0 mg/kg/injection, schedule: Q03HX006 (ip), vehicle: saline, higher T/C = larger tumour
  survivor count: 4 of 10 on day 20
T/C endpoint: median tumor weight (est.), dose: 150.0 mg/kg/injection, schedule: Q06HX016 (ip), vehicle: saline, higher T/C = larger tumour
  survivor count: 0 of 10 on day 20
T/C endpoint: median tumor weight (est.), dose: 200.0 mg/kg/injection, schedule: Q01DX008 (ip), vehicle: saline, higher T/C = larger tumour
  survivor count: 3 of 10 on day 20
T/C endpoint: median tumor weight (est.), dose: 200.0 mg/kg/injection, schedule: Q03HX006 (ip), vehicle: saline, higher T/C = larger tumour
  survivor count: 1 of 10 on day 20
T/C endpoint: median tumor weight (est.), dose: 266.7 mg/kg/injection, schedule: Q06HX004 (ip), vehicle: saline, higher T/C = larger tumour
  survivor count: 5 of 10 on day 20
T/C endpoint: median tumor weight (est.), dose: 355.6 mg/kg/injection, schedule: Q06HX004 (ip), vehicle: saline, higher T/C = larger tumour
  survivor count: 0 of 10 on day 20
T/C endpoint: median tumor weight (est.), dose: 355.6 mg/kg/injection, schedule: Q07DX002 (ip), vehicle: saline, higher T/C = larger tumour
  survivor count: 4 of 10 on day 20 and 6 of 10 on day 20

## C[C@@](O)(/C=C/[C@H]1CC=CC(=O)O1)[C@@H](C[C@@H](O)\C=C/C=C\C=C\CO)OP(=O)(O)O
T/C endpoint: median tumor weight (est.), dose: 3.12 mg/kg/injection, schedule: Q07DX002 (ip), vehicle: other, evaluated on day 20, higher T/C = larger tumour
  T/C: 138 % of control [9 of 10 alive on day 20]
T/C endpoint: median tumor weight (est.), dose: 6.25 mg/kg/injection, schedule: Q07DX002 (ip), vehicle: other, evaluated on day 20, higher T/C = larger tumour
  T/C: 128 % of control
T/C endpoint: median tumor weight (est.), dose: 50.0 mg/kg/injection, schedule: Q07DX002 (ip), vehicle: other, higher T/C = larger tumour
  survivor count: 0 of 10 on day 20 and 4 of 10 on day 20
T/C endpoint: median tumor weight (est.), dose: 100.0 mg/kg/injection, schedule: Q07DX002 (ip), vehicle: other, higher T/C = larger tumour
  survivor count: 0 of 10 on day 20
T/C endpoint: median tumor weight (est.), dose: 200.0 mg/kg/injection, schedule: Q07DX002 (ip), vehicle: other, higher T/C = larger tumour
  survivor count: 0 of 10 on day 20
